## Primary screen of a compound library

Sequences of proteins named here, by UniProt entry; tags and fusion partners are left off.
UniProt E9BF75, entry or part of it: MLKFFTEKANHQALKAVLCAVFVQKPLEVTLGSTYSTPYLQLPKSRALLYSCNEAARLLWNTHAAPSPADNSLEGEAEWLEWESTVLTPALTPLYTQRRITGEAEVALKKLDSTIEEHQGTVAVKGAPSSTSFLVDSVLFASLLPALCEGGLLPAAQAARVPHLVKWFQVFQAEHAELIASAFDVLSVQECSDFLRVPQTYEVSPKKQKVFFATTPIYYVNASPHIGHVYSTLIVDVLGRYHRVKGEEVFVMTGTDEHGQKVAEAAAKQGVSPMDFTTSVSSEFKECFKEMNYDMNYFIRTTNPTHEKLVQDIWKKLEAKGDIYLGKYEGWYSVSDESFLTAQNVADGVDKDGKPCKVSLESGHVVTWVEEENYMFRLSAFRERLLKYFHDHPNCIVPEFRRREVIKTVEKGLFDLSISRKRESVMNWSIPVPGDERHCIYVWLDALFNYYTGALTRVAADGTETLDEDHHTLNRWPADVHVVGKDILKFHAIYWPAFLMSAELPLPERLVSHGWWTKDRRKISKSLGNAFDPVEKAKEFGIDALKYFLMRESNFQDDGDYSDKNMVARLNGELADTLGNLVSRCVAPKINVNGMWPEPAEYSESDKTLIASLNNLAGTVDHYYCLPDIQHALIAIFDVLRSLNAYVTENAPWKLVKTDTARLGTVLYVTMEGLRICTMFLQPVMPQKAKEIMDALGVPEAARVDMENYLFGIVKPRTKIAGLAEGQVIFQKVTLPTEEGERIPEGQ

Source: ChEMBL document CHEMBL3988442, “University of Dundee, Small-Polar-MMV Screening Library” (2021).

A: 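Assay on Mycobacterium tuberculosis, filed only as a heat shock assay from Cornell; the read-out is not stated. The concentration is filed as 10 mM, unlikely as a test dose, so the dose is not known. Direction is inferred from retests: higher values go with stronger inhibition. Size under these conditions: about 69,000 compounds, about 930 of them at 50% or above in at least one test.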
B: 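Whole-cell assay for inhibitors of Mycobacterium tuberculosis growth, labelled Cornell in the record; the read-out is not stated. The concentration is filed as 10 mM, unlikely as a test dose, so the dose is not known. Higher means stronger inhibition (inferred from two other growth screens of the library). Size under these conditions: about 53,000 compounds, about 900 of them at 50% or above in at least one test.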
C: 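Methionyl-tRNA synthetase (putative), Leishmania donovani (UniProt E9BF75). Primary screen of methionyl-tRNA synthetase; the read-out is not stated. The test concentration is not given. The values are filed as inhibition. Size under these conditions: about 68,000 compounds, about 24 of them at 50% or above in at least one test.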

Results are percentages, as filed. How 0% and 100% were set is not recorded. Most values in the screen are low, and negative values occur. Compounds were drawn at random from those tested, without regard to their results. A dash means the value is not listed here; it may have been measured.

| Compound | A | B | C |
|---|---|---|---|
| `[H][C@@]12CN(Cc3ccc4c(c3)OCO4)C[C@]1([H])OCC(=O)N2` | 1.725 | 13.83 | - |
| `O=C(c1ccccc1-n1cnnn1)N1CCC2(CC1)OCCO2` | 3.123 | 10.21 | 13.6 |
| `CCc1nc(CN2CCCN(C(=O)c3ccco3)CC2)cs1` | -0.01913 | -26.31 | 7.407 |
| `Cn1cc(CN2CCC3(CC2)CCN(C(=O)c2cscn2)CC3)cn1.O=C(O)C(F)(F)F` | -25.9 | -2.638 | - |
| `Cc1cnc(C(=O)N2CCNCC2C(=O)NCc2ccncc2)cn1` (configuration not stated) | -17.54 | -16.29 | 4.53 |
| `CC(C)NC(=O)CCNC(=O)c1cc(F)ccc1NS(C)(=O)=O` | -23.31 | -46.2 | 2.419 |
| `O=C(c1cnco1)N1C[C@@H](O)[C@H](Oc2cccc(F)c2)C1` | -17.83 | -33.41 | 5.178 |
| `Cc1cc(C)n(CCN(C)c2ccc(-c3nc(C4CC4)no3)cn2)n1` | 6.493 | -13.85 | 2.736 |
| `Cc1nc(CN2C[C@@H]3OCCN(c4ncc(F)cn4)[C@@H]3C2)cs1` | - | - | 16.32 |
| `O=C(O)C(F)(F)F.[H][C@]12CCN(C(=O)c3ccco3)[C@@]1([H])CC[C@@H](COCCN1CCCC1)O2` | 10.43 | 23.22 | - |
| `COC(=O)c1ccc(S(=O)(=O)NCc2cccnc2N(C)C)cc1` | -0.009039 | -21.7 | 1.408 |
| `O=C(NCc1nnc2ccccn12)N1CCc2sccc2C1` | -32.93 | - | 13.19 |
| `O=C(NC1CCCN(Cc2c(F)cccc2F)C1)c1cnccn1` (configuration not stated) | -6.966 | 3.934 | 4.749 |
| `[H][C@]1([C@H](O)c2ccc(NC(=O)c3cccc(C#N)c3)cc2)COCC(=O)N1` | 1.407 | -45.78 | - |
| `[H][C@]12CCCC(N(C)Cc3cccs3)[C@@]1([H])CN(C(=O)c1cccn1C)C2` (some centres not stated) | -15.48 | 28.44 | - |
| `Cc1cnn(CC2CCCN2Cc2cc(=O)n3cccc(C)c3n2)c1` (configuration not stated) | 21.06 | 3.355 | 24.91 |
| `O=C(O)C(F)(F)F.c1csc(CN2CCn3c(Cn4cncn4)cnc3C2)c1` | -14.55 | -8.76 | - |
| `CN(C)C(C(=O)N1CCC(CCO)CC1)c1ccccc1F` (configuration not stated) | -15.99 | -38.65 | 1.124 |
| `CN(C)CCN1Cc2ncn(C)c2C(COCC(=O)N(C)C)C1` (configuration not stated) | -29.66 | - | 15.23 |
| `CC(=O)N(Cc1noc(C2CC2)n1)C1CCN(CC2CCOCC2)C1` (configuration not stated) | -11.41 | -29.12 | -3.631 |
| `CCn1nc(NC(=O)Cn2ccc(C(C)=O)n2)c2ccccc21` | 19.87 | 6.087 | -6.316 |
| `CCOCCN1CCN(c2ccc(C#N)cn2)CC1CC` (configuration not stated) | 0.3002 | 13.4 | 11.43 |
| `O=C(NCC1COCc2c(-c3cccnc3)nnn2C1)c1cccs1.O=C(O)C(F)(F)F` (configuration not stated) | 4.879 | -14.19 | - |
| `Cc1n[nH]c(C)c1CCC(=O)N(C)Cc1cn[nH]c1-c1ccc(F)cc1` | -13.87 | -20.9 | 1.272 |
| `CCCNC(=O)CSc1nnc2[nH]c(=O)c3c(n12)CCCC3` | 11.98 | -61.77 | 0.7194 |
| `CC(C)c1nn(C)c(N(C)C)c1CNCc1ccnc(N(C)C)c1` | -12.78 | 45.19 | 13.13 |
| `Cc1ccc(C(=O)Nc2nc(C)no2)cc1` | 75.29 | 27.63 | 23.43 |
| `CCn1ncc2c1CCCC2NCc1cccc2c1OCCCO2` (configuration not stated) | -0.1749 | -31.73 | 15.19 |
| `CC(C)NC(=O)[C@@H]1C[C@H](N)CN1C(=O)C1(c2ccc(Cl)cc2)CCC1` | 22.53 | 4.69 | 14.21 |
| `Cc1nnc(SCC(=O)N2CCc3[nH]nc(C4CCC4)c3C2)o1` | -12.78 | -15.21 | 6.183 |
| `c1ccc2sc(N3CCN(c4ncnc5c4CCC5)CC3)nc2c1` | -9.42 | 13.12 | 14.54 |
| `CS(=O)(=O)NC[C@H]1Cn2c(-c3ccc(Cl)cc3)cnc2CO1` | 5.462 | 16.46 | 12.54 |
| `CNc1nc(C2CCCN2C(C)=O)nc2c1CN(C1CCCC1)CC2` (configuration not stated) | -6.236 | - | 12.47 |
| `COc1ccc(C(C)Nc2ncnc3c2NC(=O)CN3)cc1` (configuration not stated) | -9.803 | 7.142 | 16.71 |
| `O=C(NCCc1cccc(Cl)c1)C1CCOCC1` | -3.977 | 10.9 | 11.68 |
| `Cn1cnnc1C1CCCN(C(=O)c2ccccn2)C1` (configuration not stated) | -5.499 | - | 12.15 |
| `COCC1CC2(CCN(Cc3ccccn3)CC2)CN1c1ncccn1` (configuration not stated) | - | - | 8.148 |
| `[H][C@@]12CCN(C)[C@]1([H])CN(C(=O)COCc1nc3cc(F)ccc3[nH]1)C2` | 19.34 | -22.87 | - |
| `COc1ccc(F)cc1S(=O)(=O)N1CCN(CCn2ccnc2)CC1` | -4.606 | 3.151 | 20.33 |
| `COc1cc(N2CCC(c3nccn3CCCN(C)C)CC2)nc(N)n1` | -23.08 | 9.604 | 5.177 |
| `CC(C)(C)C(O)CN1CCN(CC(=O)NC(C2CC2)C2CC2)CC1` (configuration not stated) | -16.72 | - | 11.33 |

The last 5 entries again:

| Compound | A | B | C |
|---|---|---|---|
| `COCC1CC2(CCN(Cc3ccccn3)CC2)CN1c1ncccn1` (configuration not stated) | - | - | 8.148 |
| `[H][C@@]12CCN(C)[C@]1([H])CN(C(=O)COCc1nc3cc(F)ccc3[nH]1)C2` | 19.34 | -22.87 | - |
| `COc1ccc(F)cc1S(=O)(=O)N1CCN(CCn2ccnc2)CC1` | -4.606 | 3.151 | 20.33 |
| `COc1cc(N2CCC(c3nccn3CCCN(C)C)CC2)nc(N)n1` | -23.08 | 9.604 | 5.177 |
| `CC(C)(C)C(O)CN1CCN(CC(=O)NC(C2CC2)C2CC2)CC1` (configuration not stated) | -16.72 | - | 11.33 |